The data set concerns blue light-induced retinal degenerations or damages in rats. The experiment in a line: Scotopic electroretinogram (amplitude of wave a) after blue light-induced retinal degeneration. The following applies: base = before first administration and induction. The data set is classed as in vivo, Sprague-Dawley albino male rats. How it is done:
This animal model is particularly representative, in addition to light-induced retinal damage, of age-related macular degeneration (AMD) and retinitis pigmentosa (see e.g Feng et al. (2012) International Journal of Ophthalmology 5:151-157).
72 Sprague-Dawley albino male rats obtained from Janvier were used for the study. When received, the rats were approximately 7 weeks old and weighed 180-200 g,
Induction was performed by exposure during 6 hours to a blue fluorescent light of 400 nm-540 nm wavelength in individual cages. The rats were kept in the dark for 36 hours prior to the induction and 24 hours after the induction, before returning to normal lighting conditions.
A scotopic electroretinogram (ERG) was performed by using the electrophysiological RETI-animal® (Roland Consult) system before the first administration (base) then on days 7 and 14 on both eyes of animals accustomed to the darkness. The animals were anesthetized with an intramuscular injection of a mixture of ketamine/xylazine. 15 minutes before the measurement, 1 drop of Mydriatictum® (0.5% tropicamide) was instilled to induce dilatation of the pupil. The amplitudes of wave a and wave b were measured for each eye and expressed as a percentage of the base amplitudes.
The ERG parameters are: • Gansfeld Q450C • Color: maximum white • Maximum intensity: 2.6 cd.s/m^2 (0 dB); duration: 0.24 ms; number of flashes: 1 • Filter: 50 Hz • Impedance threshold: 90 kΩ
A two-factor ANOVA test was applied to the average amplitudes of the wave a of both eyes for each measurement point. The effect of the products was determined using the Turkey's multiple comparison test; each group was compared to other groups. Differences were considered significant for p values less than 0.05.
Electroretinograms (ERG) allow to measure the amplitude of wave a, which results from the photo-activated hyperpolarization of photoreceptors. Thus, a reduction of the amplitude of wave a is an indicator of a retinal damage or degeneration associated with exposure to blue light.

Data on 2 compounds can be found in patent publication US9872858B2, “Treatment of degenerations and light-induced damage to the retina” (BIOCODEX, priority 2014, dated 2018).

SMILES strings stand for the structures.

As to `CCNC1=Nc2ccc(Cl)cc2C(C)(c2ccccc2)O1.Cl` (stereo not shown) [EFX, 6-chloro-2-ethylamino-4-methyl-4-phenyl-4H-[3,1]benzoxazine hydrochloride], the “Amplitude of wave a (mean ± standard deviation), Base” value runs as follows: (EFX 12.5 mg/kg group) 465 ± 68 μV; (EFX 25 mg/kg group) 468 ± 70 μV; (EFX 50 mg/kg group) 461 ± 82 μV.
As for `CC(C)(C)[N+]([O-])=Cc1ccccc1` [PBN, Phenyl-N-tert-butylnitrone], for the setting “PBN 50 mg/kg group”, the “Amplitude of wave a (mean ± standard deviation), Base” value turned out to be 465 ± 67 μV.
